From US20040052845A1, “Hydrogel-driven drug dosage form” (priority 2003, published 2004)
Converted amounts (≈) assume the structure as drawn.

Conditions: pH 6.5

COC(=O)C1=C(C)NC(C)=C(C(=O)OC)C1c1ccccc1[N+](=O)[O-] [Drug 4, nifedipine] showed a solubility of 26 µg/mL (≈ 75.1 µM).
